Measured values taken from paper PMC5469495, “MicroRNA319-regulated TCPs interact with FBHs and PFT1 to activate CO transcription and control flowering time in Arabidopsis” (PLoS Genetics, 2017).
These are yes or no findings as the source states them, for the method shown. For part of these data: Binding can be weak; no strength is given. For part of these data: Binding seen in cells or lysates may run through a third protein. For part of these data: Where a sequence is shown, tags or fusion partners need not be part of it.

Chains of the proteins cited; added tags and fusions are not shown. Lines headed by an entry give the natural chain unless they say otherwise; changes in a name come on top.
UniProt Q9C8P8: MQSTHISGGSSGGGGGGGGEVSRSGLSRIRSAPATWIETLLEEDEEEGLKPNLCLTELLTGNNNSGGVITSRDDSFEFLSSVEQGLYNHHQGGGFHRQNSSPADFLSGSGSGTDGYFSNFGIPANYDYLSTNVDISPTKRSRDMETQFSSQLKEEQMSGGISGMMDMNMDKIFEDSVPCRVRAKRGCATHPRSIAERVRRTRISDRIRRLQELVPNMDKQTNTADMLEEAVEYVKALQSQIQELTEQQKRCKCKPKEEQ
UniProt Q9C690: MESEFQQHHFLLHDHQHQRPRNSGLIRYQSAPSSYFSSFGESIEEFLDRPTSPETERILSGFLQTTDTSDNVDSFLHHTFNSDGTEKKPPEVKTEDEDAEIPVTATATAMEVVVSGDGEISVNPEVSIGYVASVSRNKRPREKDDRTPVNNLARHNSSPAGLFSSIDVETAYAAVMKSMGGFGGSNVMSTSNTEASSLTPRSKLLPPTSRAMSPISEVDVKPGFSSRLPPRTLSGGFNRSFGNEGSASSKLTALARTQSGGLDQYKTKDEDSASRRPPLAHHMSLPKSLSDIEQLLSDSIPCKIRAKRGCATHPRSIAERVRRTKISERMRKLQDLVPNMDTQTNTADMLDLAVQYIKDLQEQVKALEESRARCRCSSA
UniProt Q66GR3: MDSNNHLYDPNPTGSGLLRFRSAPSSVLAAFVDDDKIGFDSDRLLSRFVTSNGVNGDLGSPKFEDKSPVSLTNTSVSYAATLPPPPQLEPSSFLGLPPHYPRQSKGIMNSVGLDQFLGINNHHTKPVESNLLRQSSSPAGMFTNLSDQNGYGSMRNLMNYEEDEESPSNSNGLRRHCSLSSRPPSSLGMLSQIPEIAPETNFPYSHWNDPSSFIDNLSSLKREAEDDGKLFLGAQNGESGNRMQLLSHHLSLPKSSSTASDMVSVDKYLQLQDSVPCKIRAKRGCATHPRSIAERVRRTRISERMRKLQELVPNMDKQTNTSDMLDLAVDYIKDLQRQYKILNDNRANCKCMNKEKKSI
UniProt Q9M0R0: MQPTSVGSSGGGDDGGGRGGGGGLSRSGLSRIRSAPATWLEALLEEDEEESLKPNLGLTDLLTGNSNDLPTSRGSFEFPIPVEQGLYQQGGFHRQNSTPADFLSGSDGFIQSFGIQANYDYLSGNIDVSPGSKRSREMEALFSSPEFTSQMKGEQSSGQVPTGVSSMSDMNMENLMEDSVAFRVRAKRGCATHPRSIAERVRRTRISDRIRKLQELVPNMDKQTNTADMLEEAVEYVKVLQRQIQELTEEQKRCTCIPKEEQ

T1: CDF1 (Arabidopsis thaliana) (UniProt Q8W1E3)
T1 sequence: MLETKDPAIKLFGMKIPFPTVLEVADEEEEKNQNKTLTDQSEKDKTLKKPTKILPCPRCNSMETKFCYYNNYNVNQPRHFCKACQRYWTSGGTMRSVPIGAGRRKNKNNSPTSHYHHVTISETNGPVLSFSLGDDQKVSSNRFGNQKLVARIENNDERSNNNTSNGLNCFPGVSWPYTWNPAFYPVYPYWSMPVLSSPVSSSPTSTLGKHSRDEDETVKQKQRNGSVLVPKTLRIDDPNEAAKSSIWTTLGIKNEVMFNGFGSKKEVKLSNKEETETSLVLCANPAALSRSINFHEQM

T2: CDF2 (Arabidopsis thaliana) (UniProt Q93ZL5)
T2 sequence: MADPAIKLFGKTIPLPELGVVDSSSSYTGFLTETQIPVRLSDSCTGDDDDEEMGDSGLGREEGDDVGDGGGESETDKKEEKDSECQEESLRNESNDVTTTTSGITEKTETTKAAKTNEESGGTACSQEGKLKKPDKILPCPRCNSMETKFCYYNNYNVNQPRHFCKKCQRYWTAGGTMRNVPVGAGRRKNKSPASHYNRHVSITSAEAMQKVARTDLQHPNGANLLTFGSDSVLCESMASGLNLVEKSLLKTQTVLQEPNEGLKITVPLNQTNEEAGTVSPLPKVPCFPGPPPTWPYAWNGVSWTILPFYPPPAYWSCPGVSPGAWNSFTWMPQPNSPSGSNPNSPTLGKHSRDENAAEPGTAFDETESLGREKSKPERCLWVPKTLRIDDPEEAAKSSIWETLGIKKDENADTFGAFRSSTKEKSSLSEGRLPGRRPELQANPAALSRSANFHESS

T3: CDF3 (Arabidopsis thaliana) (UniProt Q8LFV3)
T3 sequence: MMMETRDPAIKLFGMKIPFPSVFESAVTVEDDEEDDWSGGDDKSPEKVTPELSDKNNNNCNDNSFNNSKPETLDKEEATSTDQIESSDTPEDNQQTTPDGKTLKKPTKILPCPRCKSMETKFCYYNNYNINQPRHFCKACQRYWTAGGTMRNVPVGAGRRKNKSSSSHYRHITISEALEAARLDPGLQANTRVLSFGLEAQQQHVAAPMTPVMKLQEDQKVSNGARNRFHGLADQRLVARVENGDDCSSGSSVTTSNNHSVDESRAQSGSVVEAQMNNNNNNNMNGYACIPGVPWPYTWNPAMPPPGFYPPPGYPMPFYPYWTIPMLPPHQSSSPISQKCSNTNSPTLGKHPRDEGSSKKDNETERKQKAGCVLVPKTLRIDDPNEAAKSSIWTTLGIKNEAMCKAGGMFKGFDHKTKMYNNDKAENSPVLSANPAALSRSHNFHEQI

T4: PHYTOCHROME AND FLOWERING TIME 1 (Arabidopsis thaliana) (UniProt Q7XYY2)
T4 sequence: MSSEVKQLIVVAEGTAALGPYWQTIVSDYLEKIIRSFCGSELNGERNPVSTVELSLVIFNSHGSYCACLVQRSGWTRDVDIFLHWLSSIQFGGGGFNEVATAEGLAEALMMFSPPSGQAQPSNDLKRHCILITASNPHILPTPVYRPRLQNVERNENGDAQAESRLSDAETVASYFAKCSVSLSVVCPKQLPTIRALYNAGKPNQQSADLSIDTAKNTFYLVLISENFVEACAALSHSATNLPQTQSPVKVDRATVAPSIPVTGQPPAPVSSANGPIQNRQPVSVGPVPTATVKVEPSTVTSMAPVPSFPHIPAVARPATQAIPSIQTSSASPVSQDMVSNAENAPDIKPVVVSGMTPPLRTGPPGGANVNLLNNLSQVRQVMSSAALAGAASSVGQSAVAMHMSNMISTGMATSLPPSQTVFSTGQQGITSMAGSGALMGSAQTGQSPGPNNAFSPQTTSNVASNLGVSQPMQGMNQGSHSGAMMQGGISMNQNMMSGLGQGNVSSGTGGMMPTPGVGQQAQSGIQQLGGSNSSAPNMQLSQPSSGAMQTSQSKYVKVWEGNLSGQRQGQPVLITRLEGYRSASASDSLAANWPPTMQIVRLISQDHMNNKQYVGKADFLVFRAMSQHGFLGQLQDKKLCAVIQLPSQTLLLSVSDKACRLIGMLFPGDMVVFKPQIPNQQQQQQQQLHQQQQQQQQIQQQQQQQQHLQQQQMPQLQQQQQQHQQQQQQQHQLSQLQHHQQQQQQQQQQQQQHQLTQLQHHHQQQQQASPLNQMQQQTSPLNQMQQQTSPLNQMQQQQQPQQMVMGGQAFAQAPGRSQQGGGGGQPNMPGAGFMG


Legend:
[1] = target: T1, CDF1 (Arabidopsis thaliana); assay: two-hybrid; GAL4-AD and GAL4-BD derivatives co-transformed into yeast strain AH109; grown on SD-L/W, screened on SD-L/W/H or SD-L/W/H/A with 3-AT
[2] = target: T2, CDF2 (Arabidopsis thaliana); assay: as above
[3] = target: T3, CDF3 (Arabidopsis thaliana); assay: as above
[4] = target: T4, PHYTOCHROME AND FLOWERING TIME 1 (Arabidopsis thaliana); assay: as above
[5] = target: T4, PHYTOCHROME AND FLOWERING TIME 1 (Arabidopsis thaliana); assay: split reporter; LUC complementation imaging (LCI): nLUC and cLUC fusions co-infiltrated by Agrobacterium into N. benthamiana leaves; LUC activity 48 h after infiltration
[6] = target: FLOWERING BHLH 1 (Arabidopsis thaliana) (UniProt Q9C8P8); assay: two-hybrid; GAL4-AD and GAL4-BD derivatives co-transformed into yeast strain AH109; grown on SD-L/W, screened on SD-L/W/H or SD-L/W/H/A with 3-AT
[7] = target: FLOWERING BHLH 1 (Arabidopsis thaliana) (UniProt Q9C8P8); assay: split reporter; LUC complementation imaging (LCI): nLUC and cLUC fusions co-infiltrated by Agrobacterium into N. benthamiana leaves; LUC activity 48 h after infiltration
[8] = target: FBH1-GFP (Arabidopsis thaliana) (UniProt Q9C8P8); assay: co-IP; total proteins of FBH1-GFP/TCP4-Myc double transgenic Arabidopsis plants; anti-GFP- or anti-Myc-conjugated agarose beads; lysis buffer 50 mM Tris-HCl pH 7.5, 150 mM NaCl, 5 mM EDTA, 0.1% Triton X-100, 0.2% NP-40; single transgenic plants as controls

Molecule | binding [1] | binding [2] | binding [3] | binding [4] | binding [5] | binding [6] | binding [7] | binding [8]
FBH3 (from UniProt Q9C690) | no binding | no binding | no binding | binds | binds |  |  | 
TCP4-Myc (protein, UniProt Q8LPR5 1-420) MSDDQFHHPPPPSSMRHRSTSDAADGGCGEIVEVQGGHIVRSTGRKDRHSKVCTAKGPRDRRVRLSAHTAIQFYDVQDRLGFDRPSKAVDWLIKKAKTSIDELAELPPWNPADAIRLAAANAKPRRTTAKTQISPSPPPPQQQQQQQQLQFGVGFNGGGAEHPSNNESSFLPPSMDSDSIADTIKSFFPVIGSSTEAPSNHNLMHNYHHQHPPDLLSRTNSQNQDLRLSLQSFPDGPPSLLHHQHHHHTSASASEPTLFYGQSNPLGFDTSSWEQQSSEFGRIQRLVAWNSGGGGGATDTGNGGGFLFAPPTPSTTSFQPVLGQSQQLYSQRGPLQSSYSPMIRAWFDPHHHHQSISTDDLNHHHHLPPPVHQSAIPGIGFASGEFSSGFRIPARFQGQEEEQHDGLTHKPSSASSISRH |  |  |  |  |  |  |  | binds
TCP3 (protein, UniProt Q9MAH8 1-391) MAPDNDHFLDSPSPPLLEMRHHQSATENGGGCGEIVEVQGGHIVRSTGRKDRHSKVCTAKGPRDRRVRLSAPTAIQFYDVQDRLGFDRPSKAVDWLITKAKSAIDDLAQLPPWNPADTLRQHAAAAANAKPRKTKTLISPPPPQPEETEHHRIGEEEDNESSFLPASMDSDSIADTIKSFFPVASTQQSYHHQPPSRGNTQNQDLLRLSLQSFQNGPPFPNQTEPALFSGQSNNQLAFDSSTASWEQSHQSPEFGKIQRLVSWNNVGAAESAGSTGGFVFASPSSLHPVYSQSQLLSQRGPLQSINTPMIRAWFDPHHHHHHHQQSMTTDDLHHHHPYHIPPGIHQSAIPGIAFASSGEFSGFRIPARFQGEQEEHGGDNKPSSASSDSRH |  |  |  |  |  | binds | binds | 
TCP24 (protein, UniProt Q9C758 1-324) MEVDEDIELQKHQEQQSRKLQRFSEDNTGLMRNWNNPSSRIIRVSRASGGKDRHSKVLTSKGLRDRRIRLSVATAIQFYDLQDRLGFDQPSKAVEWLINAASDSITDLPLLNTNFDHLDQNQNQTKSACSSGTSESSLLSLSRTEIRGKARERARERTAKDRDKDLQNAHSSFTQLLTGGFDQQPSNRNWTGGSDCFNPVQLQIPNSSSQEPMNHPFSFVPDYNFGISSSSSAINGGYSSRGTLQSNSQSLFLNNNNNITQRSSISSSSSSSSPMDSQSISFFMATPPPLDHHNHQLPETFDGRLYLYYGEGNRSSDDKAKERR |  |  |  |  |  | binds | binds | 

Further lines, results first:

binding [1] | binding [2] | binding [3] | binding [4] | binding [5] | binding [6] | binding [7] | binding [8] | Molecule
no binding | no binding | no binding | binds | binds |  |  |  | FBH4 (from UniProt Q66GR3)
no binding | no binding | no binding | binds | binds |  |  |  | FBH2 (from UniProt Q9M0R0)
 |  |  |  |  | binds | binds |  | TCP10 (protein, UniProt O82277 1-361) MGLKGYSVGEGGGEIVEVQGGHIIRATGRKDRHSKVFTSKGPRDRRVRLSAHTAIQFYDVQDRLGYDRPSKAVDWLIKKAKTAIDKLELGETTTTTTRQEPVNTKPESPTLVFQRENNDQTQFVAANLDPEDAMKTFFPATTTTNGGGGTNINFQNYPHQDDNNMVSRTTTPPPNLSQDLGLSLHPFQGNNNTVVVPETNNFTTTHFDTFGRISGWNHHDLTMTSSSSSEHQQQEQEERSNGGFMVNHHPHHHHHQPSMMTLLNSQQQQVFLGGQQQQQQRGTLQSSLFPHSFRSWDHHQTTSDHHHHQNQASSMFASSSQYGSHGMMMMQGLSFPNTTRLLHGEEATQPNSSSSPPNSHL
 |  |  |  |  | binds | binds |  | TCP2 (protein, UniProt Q93V43 1-365) MIGDLMKNNNNGDVVDNEVNNRLSRWHHNSSRIIRVSRASGGKDRHSKVLTSKGPRDRRVRLSVSTALQFYDLQDRLGYDQPSKAVEWLIKAAEDSISELPSLNNTHFPTDDENHQNQTLTTVAANSLSKSACSSNSDTSKNSSGLSLSRSELRDKARERARERTAKETKERDHNHTSFTDLLNSGSDPVNSNRQWMASAPSSSPMEYFSSGLILGSGQQTHFPISTNSHPFSSISDHHHHHPHHQHQEFSFVPDHLISPAESNGGAFNLDFNMSTPSGAGAAVSAASGGGFSGFNRGTLQSNSTNQHQSFLANLQRFPTSESGGGPQFLFGALPAENHHHNHQFQLYYENGCRNSSEHKGKGKN
